Data from the supplement of paper PMC8256030.
Values joined by “and” are separate entries in the source; they are usually repeats but may differ in a detail not shown here. Equal values may be shown once. This is one part of the list. This data set is noisy: repeats of one test often differ as much as different tests do.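 HEK293T cells were given each compound shortly before transfection with a reporter in which red mCherry is followed by the SARS-CoV-2 frameshift element and then GFP in the −1 frame, so GFP appears only after frameshifting.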

system: HEK293T; assay: percent viability (nuclei count) relative to control; higher = more viable cells; details: 10 µM; 24 h

Compound	percent viability
CO/N=C(\C(=O)N[C@@H]1C(=O)N2C(C(=O)O)=C(COC(C)=O)CS[C@H]12)c1csc(N)n1 [Claforan]	197%
O=S(=O)(c1cccc2cnccc12)N1CCCNCC1 [fasudil]	199%
CC[C@H](NC(=O)c1c(O)c(-c2ccccc2)nc2ccccc12)c1ccccc1 [talnetant]	121%
Nc1ccc2cc3ccc(N)cc3nc2c1	88.4%
CC(C)(C)c1ccc(C(O)CCCN2CCC(C(O)(c3ccccc3)c3ccccc3)CC2)cc1 (stereo not given) [terfenadine]	233% and 303%
Oc1ccc(C2CNCCc3c2cc(O)c(O)c3Cl)cc1 (stereo not given) [fenoldopam]	172%
Cc1c(Cl)cccc1Nc1ccccc1C(=O)O [tolfenamic acid]	314% and 141%
C[N+]1(C)CCC(=C(c2ccccc2)c2ccccc2)CC1 [diphemanil metilsulfate]	201%
C[C@H]1O[C@@H](O[C@H]2[C@@H](O)C[C@H](O[C@H]3[C@@H](O)C[C@H](O[C@H]4CC[C@@]5(C)[C@H](CC[C@@H]6[C@@H]5C[C@@H](O)[C@]5(C)[C@@H](C7=CC(=O)OC7)CC[C@]65O)C4)O[C@@H]3C)O[C@@H]2C)C[C@H](O)[C@@H]1O [digoxin]	4.02%
CC(C)[C@H](N)C(=O)OCCOCn1cnc2c(=O)nc(N)[nH]c21 [valaciclovir]	227%
CCN(CC)C(=O)N1CCN(C)CC1 [diethylcarbamazine]	183%
CC1=C(C(=O)O)N2C(=O)[C@@H](NC(=O)[C@H](N)C3=CCC=CC3)[C@H]2SC1 [Velosef]	107%
COCCCC/C(=N\OCCN)c1ccc(C(F)(F)F)cc1 [fluvoxamine]	268%
NCCc1c[nH]cn1 [Histamine Phosphate]	164%
CC(=O)Nc1ncc([N+](=O)[O-])s1 [aminitrozole]	324%
CC(C)(C)CC(C)(C)c1ccc(OCCOCC[N+](C)(C)Cc2ccccc2)cc1 [benzethonium chloride]	132%
CCN(CC)CC(=O)Oc1ccc(NC(C)=O)cc1 [propacetamol]	219%
Cc1ccsc1/C=C/C1=NCCCN1C [morantel]	342%
COc1ccc(CN2CCN(C(c3ccc(F)cc3)c3ccc(F)cc3)CC2)c(OC)c1OC [lomerizine]	168% and 159%
CC1(C)O[C@@H]2[C@@H](CO[C@@]3(COS(N)(=O)=O)OC(C)(C)O[C@@H]23)O1 [topiramate]	273%

Arranged by SMILES length (low to high): part of the list above.
Compound	percent viability
CCN(CC)C(=O)N1CCN(C)CC1 [diethylcarbamazine]	183%
Oc1ccc(C2CNCCc3c2cc(O)c(O)c3Cl)cc1 (stereo not given) [fenoldopam]	172%
CC1(C)O[C@@H]2[C@@H](CO[C@@]3(COS(N)(=O)=O)OC(C)(C)O[C@@H]23)O1 [topiramate]	273%

Carrying on.

Compound	percent viability
CN(C)CCN(Cc1ccccc1)c1nc2ccccc2o1 [oxadimedine]	228%
CCCCNc1ccc(C(=O)OCCOCCOCCOCCOCCOCCOCCOCCOCCOC)cc1 [benzonatate]	321%
CCCc1c2oc(C(=O)O)cc(=O)c2cc2c(=O)cc(C(=O)O)n(CC)c12 [nedocromil]	254%
Cn1c(C#N)ccc1-c1ccc2c(c1)C(C)(C)OC(=S)N2 [tanaproget]	95.6%
CCCCC[C@H](O)/C=C/[C@@H]1[C@H]2C/C(=C/CCCC(=O)O)O[C@H]2C[C@H]1O [epoprostenol]	154%
CC[C@]12CN3CCc4c([nH]c5ccccc45)[C@@](C(=O)OC)(c4cc5c(cc4OC)N(C)[C@H]4[C@@](O)(C(=O)OC)[C@H](OC(C)=O)[C@]6(CC)C=CCN7CC[C@]54[C@@H]76)C[C@@H](C3)[C@H]1O2 [vinleurosine]	15.9%
N=C(N)N	152%
CC(=O)C(=Cc1cc(O)c(O)c([N+](=O)[O-])c1)C(C)=O [nitecapone]	246%
CC(C)(C)NC[C@H](O)COc1ccccc1C1CCCC1	116%
O.O.O.O.O=C([O-])CC(O)(CC(=O)[O-])C(=O)[O-].[Li+].[Li+].[Li+]	321%
CN(C)CCCN1c2ccccc2Sc2ccc(C(F)(F)F)cc21 [triflupromazine]	443%
NC(=O)C(c1ccccc1)(c1ccccc1)[C@@H]1CCN(CCc2ccc3c(c2)CCO3)C1	182%
C=CCc1ccc(O)c(OC)c1	117%
CCCCC(=O)O[C@]1(C(=O)CO)[C@@H](C)C[C@H]2[C@@H]3CCC4=CC(=O)C=C[C@]4(C)[C@@]3(F)[C@@H](O)C[C@@]21C	212%
Oc1nc(O)c2cn[nH]c2n1 [oxipurinol]	119%
O=c1[nH]cnc2c1ncn2[C@H]1CC[C@@H](CO)O1 [Didanosine]	298%
CN1C(=O)C(N2CCCCC2)S/C1=C\C(=O)O (stereo not given) [ozolinone]	175%
NC(=O)c1cc[n+](CC2=C(C(=O)O)N3C(=O)[C@@H](NC(=O)[C@@H](c4ccccc4)S(=O)(=O)[O-])[C@H]3SC2)cc1	298%
Nc1nc(/C(=C/CC(=O)O)C(=O)N[C@@H]2C(=O)N3C(C(=O)O)=CCS[C@H]23)cs1	203%
Cc1ccc(C(=O)c2ccc(CC(=O)O)n2C)cc1 [tolmetin]	121% and 266%
